Measured values taken from patent publication US7179446B2 (Bristol-Myers Squibb Pharma Company, priority 2000, dated 2007).

Test: solid-phase peptide synthesis
Settings: TFA salt; for final HPLC purity / crude HPLC purity: Analytical HPLC (Method 1A / 1B)

Substance: Cyclo{Arg-Gly-Asp-D-Tyr(N-DTPA-3-aminopropyl)-Val}
- final HPLC purity (conjugation step): Purity=96%
- conjugation yield (conjugation step): 65%

Substance: Glu(cyclo{Lys-Arg-Gly-Asp-D-Nal})-cyclo{Lys-Arg-Gly-Asp-D-Nal}
- crude HPLC purity (late stage modification step): Purity=62%

Substance: cyclo{Arg-Gly-Asp-D-Phe-Lys}2(DTPA)
- final HPLC purity (conjugation step): Purity=93%
- conjugation yield (conjugation step): 21%

Substance: cyclo{Arg-D-Val-D-Tyr(3-aminopropyl)-D-Asp-Gly}
- step yield (late stage modification step): 27%

Substance: [2-[[[5-[carbonyl]-2-pyridinyl]hydrazono]methyl]-benzenesulfonic acid]-Glu(cyclo{D-Tyr(3-aminopropyl)-Val-Arg-Gly-Asp})-cyclo{D-Tyr(3-aminopropyl)-Val-Arg-Gly-Asp}
- final HPLC purity (conjugation step): Purity=94%
- conjugation yield (conjugation step): 43%

Substance: cyclo{Arg-Gly-Asp-D-Nal-Lys([2-[[[5-[carbonyl]-2-pyridinyl]hydrazono]methyl]-benzenesulfonic acid])}
- final HPLC purity (conjugation step): Purity=99%
- conjugation yield (conjugation step): 72%

Substance: cyclo{Arg-Gly-Asp-Lys([2-[[[5-[carbonyl]-2-pyridinyl]hydrazono]methyl]-benzenesulfonic acid])-D-Val}
- final HPLC purity (conjugation step): Purity=92%
- conjugation yield (conjugation step): 31%

Substance: cyclo{Arg-Gly-Asp-D-Phe-Lys([2-[[[5-[carbonyl]-2-pyridinyl]hydrazono]methyl]-benzenesulfonic acid])}
- final HPLC purity (conjugation step): Purity=91%
- conjugation yield (conjugation step): 78%

Substance: Glu(cyclo{Lys-D-Val-Arg-Gly-Asp})-cyclo{Lys-D-Val-Arg-Gly-Asp}
- final HPLC purity (late stage modification step): Purity=93%

Substance: cyclo{Arg-Gly-Asp-Lys-D-Val}
- final HPLC purity (late stage modification step): Purity=92%
- step yield (late stage modification step): 66%

Substance: 2-(1,4,7,10-tetraaza-4,7,10-tris(carboxymethyl)-1-cyclododecyl)acetyl-Glu(cyclo{Lys-Arg-Gly-Asp-D-Phe})-cyclo{Lys-Arg-Gly-Asp-D-Phe}
- final HPLC purity (late stage modification step): Purity=99%
- step yield (late stage modification step): 45%

Substance: cyclo{D-Lys([2-[[[5-[carbonyl]-2-pyridinyl]hydrazono]methyl]-benzenesulfonic acid])-D-Phe-D-Asp-Gly-Arg}
- final HPLC purity (conjugation step): Purity=99%
- conjugation yield (conjugation step): 78%

Substance: Cyclo{Arg-Gly-Asp-D-Phe-Lys}
- final HPLC purity (late stage modification step): Purity=100%
- step yield (late stage modification step): 71%

Substance: cyclo{N-Me-Arg-Gly-Asp-ATA-D-Lys}
- step yield (late stage modification step): 100%

Substance: Cyclo{Arg(Tos)-Gly-Asp(OBzl)-D-Tyr(N-Cbz-3-aminopropyl)-Val}
- crude HPLC purity (whole synthesis): Purity=75%

Substance: Boc-Glu(cyclo{Lys-Arg-Gly-Asp-D-Nal})-cyclo{Lys-Arg-Gly-Asp-D-Nal}
- crude HPLC purity (conjugation step): (65%)

Substance: Cyclo{Arg-Gly-Asp-D-Tyr-Lys}
- final HPLC purity (late stage modification step): Purity=100%
- step yield (late stage modification step): 10%

Substance: [2-[[[5-[carbonyl]-2-pyridinyl]hydrazono]methyl]-benzenesulfonic acid]-Glu(cyclo{D-Lys-D-Phe-D-Asp-Gly-Arg})-cyclo{D-Lys-D-Phe-D-Asp-Gly-Arg}
- final HPLC purity (conjugation step): Purity=96%

Substance: Boc-Glu(cyclo{Lys-Arg-Gly-Asp-D-Phe})-cyclo{Lys-Arg-Gly-Asp-D-Phe}
- crude HPLC purity (conjugation step): Purity=73%
- conjugation yield (conjugation step): 44%

Substance: cyclo{Cit-Gly-Asp-D-Phe-Lys([2-[[[5-[carbonyl]-2-pyridinyl]hydrazono]methyl]-benzenesulfonic acid])}
- final HPLC purity (conjugation step): Purity=99%
- conjugation yield (conjugation step): 70%

Substance: [2-[[[5-[carbonyl]-2-pyridinyl]hydrazono]methyl]-benzenesulfonic acid]-Glu(cyclo{Lys-D-Val-Arg-Gly-Asp})-cyclo{Lys-D-Val-Arg-Gly-Asp}
- final HPLC purity (conjugation step): Purity=99%

Substance: cyclo{Arg-Gly-Asp-D-Tyr(3-(3-(N-(3-(2-(2-(3-((tert-butoxy)-carbonylamino)propoxy)ethoxy)-ethoxy)propyl)carbamoyl)-propanamido)propyl)-Val}
- final HPLC purity (conjugation step): Purity=100%
- conjugation yield (conjugation step): 14%

Substance: Boc-Glu(cyclo{D-Tyr(3-aminopropyl)-Val-Arg-Gly-Asp})-cyclo{D-Tyr(3-aminopropyl)-Val-Arg-Gly-Asp}
- crude HPLC purity (conjugation step): Purity=73%
- conjugation yield (conjugation step): 55%

Substance: cyclo{Cit-Gly-Asp(OtBu)-D-Phe-Lys(Boc)}
- crude HPLC purity (cyclisation step): purity 99%
- cyclisation yield (cyclisation step): 78%

Substance: Cyclo{Arg(Tos)-Gly-Asp(OBzl)-D-Phe-Lys(Cbz)}
- crude HPLC purity (whole synthesis): Purity=89%

Substance: Phe-Glu(cyclo{Lys-Arg-Gly-Asp-D-Phe})-cyclo{Lys-Arg-Gly-Asp-D-Phe}
- crude HPLC purity (coupling step): Purity=95%

Substance: Cyclo{Arg-Gly-Asp-D-Tyr(3-aminopropyl)-Val}
- final HPLC purity (late stage modification step): Purity=91%
- step yield (late stage modification step): 23%

Substance: [2-[[[5-[carbonyl]-2-pyridinyl]-hydrazono]methyl]-benzenesulfonic acid]-Glu(cyclo{Lys-Arg-Gly-Asp-D-Phe})-cyclo{Lys-Arg-Gly-Asp-D-Phe}
- final HPLC purity (conjugation step): Purity=91%
- conjugation yield (conjugation step): 32%

Substance: Glu(cyclo{D-Tyr(3-aminopropyl)-Val-Arg-Gly-Asp})-cyclo{D-Tyr(3-aminopropyl)-Val-Arg-Gly-Asp}
- crude HPLC purity (late stage modification step): Purity=77%
- step yield (late stage modification step): 76%

Substance: cyclo{D-Lys-D-Phe-D-Asp-Gly-Arg}
- final HPLC purity (late stage modification step): Purity=93%
- step yield (late stage modification step): ˜53%

Substance: cyclo{Arg(Tos)-D-Val-D-Tyr(N-Cbz-3-aminopropyl)-D-Asp(OBzl)-Gly}
- isolated yield (whole synthesis): 30%

Substance: Cyclo{Arg(Tos)-Gly-Asp(OBzl)-D-Tyr(Bzl)-Lys(Cbz)}
- crude HPLC purity (whole synthesis): Purity=82%

Substance: cyclo{N-Me-Arg-Gly-Asp-ATA-D-Lys([2-[[[5-[carbonyl]-2-pyridinyl]hydrazono]methyl]-benzenesulfonic acid])}
- conjugation yield (conjugation step): 8.8%

Substance: cyclo{D-Phe-D-Lys(Cbz)-D-Asp(OBzl)-Gly-Arg(Tos)}
- crude HPLC purity (whole synthesis): purity 60%

Substance: cyclo{N-Me-Arg(Tos)-Gly-Asp(OBzl)-ATA-D-Lys(Cbz)}
- isolated yield (whole synthesis): 9%

Substance: [2-[[[5-[carbonyl]-2-pyridinyl]hydrazono]methyl]-benzenesulfonic acid]-Phe-Glu(cyclo{Lys-Arg-Gly-Asp-D-Phe})-cyclo{Lys-Arg-Gly-Asp-D-Phe}
- final HPLC purity (conjugation step): Purity=99%
- conjugation yield (conjugation step): 22%

Substance: cyclo{Cit-Gly-Asp-D-Phe-Lys}
- crude HPLC purity (late stage modification step): Purity=97%

Substance: cyclo{D-Phe-D-Lys-D-Asp-Gly-Arg}
- final HPLC purity (late stage modification step): Purity=90%

Substance: Glu(cyclo{D-Lys-D-Phe-D-Asp-Gly-Arg})-cyclo{D-Lys-D-Phe-D-Asp-Gly-Arg}
- final HPLC purity (late stage modification step): Purity=93%

Substance: cyclo{Arg-Gly-Asp-D-Tyr(N-[2-[[[5-[carbonyl]-2-pyridinyl]hydrazono]methyl]-benzenesulfonic acid]-3-aminopropyl)-Val}
- final HPLC purity (conjugation step): Purity=95%
- conjugation yield (conjugation step): 37%

Substance: cyclo{Arg-Gly-Asp-D-Phe-Lys(DTPA)}
- final HPLC purity (conjugation step): Purity=100%
- conjugation yield (conjugation step): 46%

Substance: cyclo{D-Phe-D-Lys([2-[[[5-[carbonyl]-2-pyridinyl]hydrazono]methyl]-benzenesulfonic acid])-D-Asp-Gly-Arg}
- final HPLC purity (conjugation step): Purity=89%

Substance: cyclo{Arg(Mtr)-Gly-Asp(OtBu)-D-Nal-Lys(Boc)}
- crude HPLC purity (cyclisation step): purity 99%
- cyclisation yield (cyclisation step): 86%

Substance: cyclo{Arg-Gly-Asp-D-Tyr(3-(3-(N-(3-(2-(2-(3-(amino)propoxy)ethoxy)ethoxy)propyl)carbamoyl)-propanamido)propyl)-Val}
- crude HPLC purity (late stage modification step): Purity=73%
- step yield (late stage modification step): 98%

Substance: cyclo{Arg-Gly-Asp-D-Nal-Lys} bis TFA salt
- crude HPLC purity (late stage modification step): Purity=97%
- step yield (late stage modification step): 98%

Substance: Cyclo{Arg(Tos)-Gly-Asp(OBzl)-Lys(Cbz)-D-Val}
- final HPLC purity (whole synthesis): Purity=85%

Substance: cyclo{Arg-Gly-Asp-D-Tyr((N-[2-[[[5-[carbonyl]-2-pyridinyl]hydrazono]methyl]-benzenesulfonic acid]-18-amino-14-aza-4,7,10-oxy-15-oxo-octadecoyl)-3-aminopropyl)-Val}
- final HPLC purity (conjugation step): Purity=100%
- conjugation yield (conjugation step): 38%

Substance: 2-(1,4,7,10-tetraaza-4,7,10-tris(t-butoxycarbonylmethyl)-1-cyclododecyl)acetyl-Glu(cyclo{Lys-Arg-Gly-Asp-D-Phe})-cyclo{Lys-Arg-Gly-Asp-D-Phe}
- final HPLC purity (conjugation step): Purity=99%

Substance: Glu(cyclo{Lys-Arg-Gly-Asp-D-Phe})-cyclo{Lys-Arg-Gly-Asp-D-Phe} TFA salt
- crude HPLC purity (late stage modification step): Purity=73%
- step yield (late stage modification step): 100%

Substance: [2-[[[5-[carbonyl]-2-pyridinyl]hydrazono]methyl]-benzenesulfonic acid]-Glu(cyclo{Lys-Arg-Gly-Asp-D-Nal})-cyclo{Lys-Arg-Gly-Asp-D-Nal}
- final HPLC purity (conjugation step): Purity=92%
